The name of at least one read-out is uncertain.
Assay: Plasma pharmacokinetics, 12-week Phase IIa study (Example 1)
Format: in vivo, human
Conditions: both dose groups (40 mg, 125 mg twice daily); post-dose interval, mostly observed
Experimental: Investigators and patients were blind to the dosage strength. […] Patients were instructed to take doses within 30 minutes following a meal or snack, with each dose taken approximately 12 hours apart at the same times each day throughout the study.
Dosing started on Day 1 following completion of all baseline procedures. During the treatment period, subjects returned to the clinic on Days 14, 28, 56, and 84. […] Dynamic PET scanning with fill quantitative analysis was performed at baseline and at the end of treatment.
Sixteen subjects completed the full 12 weeks of treatment and all were included in safety analyses. […] In the PK analysis, due to the sparse sampling collection design, the time period from 0 to 24 hours post-dose was divided into 4 blocks in order to show the distribution of concentrations over time. […] Average blood concentration of about 8 ng/mL at the 40 mg dose level was observed. This is higher than the 5 ng/mL.

Structure (SMILES): O=c1ncn2nc(Sc3ccc(F)cc3F)ccc2c1-c1c(Cl)cccc1Cl [VX-745]
- time of VX-745 Cmax (Tmax): 3 to 4 h
